Results are given in words; binding and its absence hold for the method and conditions named. In cells and extracts the contact can be indirect. Some results given as binding are weak or reduced against the parent protein; the word gives no strength. Tags and fused reporters may be left off the sequences shown.

The target of the test is T1, Protein A-ATGL P258L (human) (UniProt Q96AD5).
T1 sequence: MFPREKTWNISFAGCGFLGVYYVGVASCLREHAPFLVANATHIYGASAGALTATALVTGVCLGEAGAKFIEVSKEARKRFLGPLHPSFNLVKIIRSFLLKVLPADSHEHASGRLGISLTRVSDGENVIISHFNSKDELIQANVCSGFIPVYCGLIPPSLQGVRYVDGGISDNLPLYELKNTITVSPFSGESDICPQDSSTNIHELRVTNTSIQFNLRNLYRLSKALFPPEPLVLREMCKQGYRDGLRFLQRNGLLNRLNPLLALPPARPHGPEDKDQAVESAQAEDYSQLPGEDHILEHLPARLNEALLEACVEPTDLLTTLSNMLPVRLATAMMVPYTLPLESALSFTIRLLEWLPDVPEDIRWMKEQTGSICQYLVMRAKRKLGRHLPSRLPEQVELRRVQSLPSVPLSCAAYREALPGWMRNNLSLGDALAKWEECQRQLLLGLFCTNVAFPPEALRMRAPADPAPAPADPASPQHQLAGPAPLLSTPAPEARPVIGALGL
The test is described as follows: co-IP; LUMIER luminescence-based co-immunoprecipitation: Protein A-ATGL variant and firefly-luciferase partner co-expressed in HEK293T, SDS-free RIPA2 lysate precipitated in IgG-coated plates 2 h at 4 °C, luminescence read; log2 fold change against wild-type ATGL, two experiments in triplicate.

B1: CIDEC wild type, firefly-luciferase fusion (protein, UniProt Q96AQ7 1-238)
chain: MEYAMKSLSLLYPKSLSRHVSVRTSVVTQQLLSEPSPKAPRARPCRVSTADRSVRKGIMAYSLEDLLLKVRDTLMLADKPFFLVLEEDGTTVETEEYFQALAGDTVFMVLQKGQKWQPPSEQGTRHPLSLSHKPAKKIDVARVTFDLYKLNPQDFIGCLNVKATFYDTYSLSYDLHCCGAKRIMKEAFRWALFSMQATGHVLLGTSCYLQQLLDATEEGQPPKGKASSLIPTCLKILQ
Consider B1, for which the binding entry is on record as “binds”.

These data come from article PMC10958042.
